These are yes or no findings as the source states them, for the method shown. Binding seen in cells or lysates may run through a third protein. Some entries that bind do so weakly or less than the wild type.

By UniProt entry, the sequences of proteins in these tests, tags left out.
UniProt Q8IWT6: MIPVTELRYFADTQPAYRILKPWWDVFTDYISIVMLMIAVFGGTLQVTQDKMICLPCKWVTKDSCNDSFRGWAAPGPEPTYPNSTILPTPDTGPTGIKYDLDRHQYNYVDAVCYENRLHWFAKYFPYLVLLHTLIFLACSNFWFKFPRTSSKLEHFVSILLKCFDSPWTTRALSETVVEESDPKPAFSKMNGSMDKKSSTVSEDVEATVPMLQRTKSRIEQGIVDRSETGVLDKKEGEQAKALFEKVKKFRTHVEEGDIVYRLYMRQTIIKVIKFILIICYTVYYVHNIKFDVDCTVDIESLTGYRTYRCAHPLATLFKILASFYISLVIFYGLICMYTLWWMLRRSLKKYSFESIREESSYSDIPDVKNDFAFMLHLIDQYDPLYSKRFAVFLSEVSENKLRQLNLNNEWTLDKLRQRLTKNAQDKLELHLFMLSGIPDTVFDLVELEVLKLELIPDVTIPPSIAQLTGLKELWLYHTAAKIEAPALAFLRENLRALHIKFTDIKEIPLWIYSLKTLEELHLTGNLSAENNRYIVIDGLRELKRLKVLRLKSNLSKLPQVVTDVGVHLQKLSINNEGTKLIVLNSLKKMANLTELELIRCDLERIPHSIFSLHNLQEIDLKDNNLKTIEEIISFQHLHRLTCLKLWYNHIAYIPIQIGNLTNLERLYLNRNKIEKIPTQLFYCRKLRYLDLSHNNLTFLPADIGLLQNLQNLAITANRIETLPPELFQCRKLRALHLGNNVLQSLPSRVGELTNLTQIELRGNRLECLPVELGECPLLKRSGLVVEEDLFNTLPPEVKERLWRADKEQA
UniProt P55786: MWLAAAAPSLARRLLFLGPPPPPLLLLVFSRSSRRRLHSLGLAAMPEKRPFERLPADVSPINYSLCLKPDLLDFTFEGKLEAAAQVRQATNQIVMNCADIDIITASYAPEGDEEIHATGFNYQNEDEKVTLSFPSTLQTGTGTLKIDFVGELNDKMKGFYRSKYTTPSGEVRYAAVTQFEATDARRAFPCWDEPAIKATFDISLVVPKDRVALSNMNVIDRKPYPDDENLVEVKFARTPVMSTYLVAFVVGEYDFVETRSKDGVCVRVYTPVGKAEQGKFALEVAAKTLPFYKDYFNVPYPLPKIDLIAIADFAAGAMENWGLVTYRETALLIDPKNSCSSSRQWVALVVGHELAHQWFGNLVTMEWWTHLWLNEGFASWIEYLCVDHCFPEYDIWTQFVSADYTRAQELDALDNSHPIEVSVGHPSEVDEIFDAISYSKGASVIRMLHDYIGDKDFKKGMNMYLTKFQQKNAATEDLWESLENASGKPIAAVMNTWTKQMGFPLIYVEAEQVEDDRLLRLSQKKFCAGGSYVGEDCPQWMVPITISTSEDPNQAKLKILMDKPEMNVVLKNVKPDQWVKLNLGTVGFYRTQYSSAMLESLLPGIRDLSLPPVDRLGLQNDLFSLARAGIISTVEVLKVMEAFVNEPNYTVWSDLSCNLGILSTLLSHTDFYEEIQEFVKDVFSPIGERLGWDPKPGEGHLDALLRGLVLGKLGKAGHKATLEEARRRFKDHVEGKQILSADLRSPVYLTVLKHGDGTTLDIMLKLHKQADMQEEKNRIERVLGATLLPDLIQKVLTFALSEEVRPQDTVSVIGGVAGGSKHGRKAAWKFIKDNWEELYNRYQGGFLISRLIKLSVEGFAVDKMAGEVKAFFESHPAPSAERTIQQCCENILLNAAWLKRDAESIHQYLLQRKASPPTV

This experiment has as its target FLAG-tagged LRRC8A (UniProt Q8IWT6). Put plainly: FRET or BRET; FRET by acceptor bleaching in fixed, Tween 20-permeabilised LRRC8A^FLAG KU1919 parental cells; anti-FLAG with AF594 secondary and anti-NPEPPS with AF647 secondary; vehicle or tosedostat.

With “NPEPPS (puromycin-sensitive aminopeptidase), endogenous (from UniProt P55786 1-919) (enzyme)”, the binding entry is “binds”.

The record behind these values is paper PMC11641020.
